According to article doi:10.1101/2024.03.20.585881:
No constants are given. Whether binding was seen depends on the method and setting. Some binding calls cover weakened binding; strength is not graded here.

Protein sequences, listed by entry. Tags and fused reporters are not part of them.
UniProt P25054: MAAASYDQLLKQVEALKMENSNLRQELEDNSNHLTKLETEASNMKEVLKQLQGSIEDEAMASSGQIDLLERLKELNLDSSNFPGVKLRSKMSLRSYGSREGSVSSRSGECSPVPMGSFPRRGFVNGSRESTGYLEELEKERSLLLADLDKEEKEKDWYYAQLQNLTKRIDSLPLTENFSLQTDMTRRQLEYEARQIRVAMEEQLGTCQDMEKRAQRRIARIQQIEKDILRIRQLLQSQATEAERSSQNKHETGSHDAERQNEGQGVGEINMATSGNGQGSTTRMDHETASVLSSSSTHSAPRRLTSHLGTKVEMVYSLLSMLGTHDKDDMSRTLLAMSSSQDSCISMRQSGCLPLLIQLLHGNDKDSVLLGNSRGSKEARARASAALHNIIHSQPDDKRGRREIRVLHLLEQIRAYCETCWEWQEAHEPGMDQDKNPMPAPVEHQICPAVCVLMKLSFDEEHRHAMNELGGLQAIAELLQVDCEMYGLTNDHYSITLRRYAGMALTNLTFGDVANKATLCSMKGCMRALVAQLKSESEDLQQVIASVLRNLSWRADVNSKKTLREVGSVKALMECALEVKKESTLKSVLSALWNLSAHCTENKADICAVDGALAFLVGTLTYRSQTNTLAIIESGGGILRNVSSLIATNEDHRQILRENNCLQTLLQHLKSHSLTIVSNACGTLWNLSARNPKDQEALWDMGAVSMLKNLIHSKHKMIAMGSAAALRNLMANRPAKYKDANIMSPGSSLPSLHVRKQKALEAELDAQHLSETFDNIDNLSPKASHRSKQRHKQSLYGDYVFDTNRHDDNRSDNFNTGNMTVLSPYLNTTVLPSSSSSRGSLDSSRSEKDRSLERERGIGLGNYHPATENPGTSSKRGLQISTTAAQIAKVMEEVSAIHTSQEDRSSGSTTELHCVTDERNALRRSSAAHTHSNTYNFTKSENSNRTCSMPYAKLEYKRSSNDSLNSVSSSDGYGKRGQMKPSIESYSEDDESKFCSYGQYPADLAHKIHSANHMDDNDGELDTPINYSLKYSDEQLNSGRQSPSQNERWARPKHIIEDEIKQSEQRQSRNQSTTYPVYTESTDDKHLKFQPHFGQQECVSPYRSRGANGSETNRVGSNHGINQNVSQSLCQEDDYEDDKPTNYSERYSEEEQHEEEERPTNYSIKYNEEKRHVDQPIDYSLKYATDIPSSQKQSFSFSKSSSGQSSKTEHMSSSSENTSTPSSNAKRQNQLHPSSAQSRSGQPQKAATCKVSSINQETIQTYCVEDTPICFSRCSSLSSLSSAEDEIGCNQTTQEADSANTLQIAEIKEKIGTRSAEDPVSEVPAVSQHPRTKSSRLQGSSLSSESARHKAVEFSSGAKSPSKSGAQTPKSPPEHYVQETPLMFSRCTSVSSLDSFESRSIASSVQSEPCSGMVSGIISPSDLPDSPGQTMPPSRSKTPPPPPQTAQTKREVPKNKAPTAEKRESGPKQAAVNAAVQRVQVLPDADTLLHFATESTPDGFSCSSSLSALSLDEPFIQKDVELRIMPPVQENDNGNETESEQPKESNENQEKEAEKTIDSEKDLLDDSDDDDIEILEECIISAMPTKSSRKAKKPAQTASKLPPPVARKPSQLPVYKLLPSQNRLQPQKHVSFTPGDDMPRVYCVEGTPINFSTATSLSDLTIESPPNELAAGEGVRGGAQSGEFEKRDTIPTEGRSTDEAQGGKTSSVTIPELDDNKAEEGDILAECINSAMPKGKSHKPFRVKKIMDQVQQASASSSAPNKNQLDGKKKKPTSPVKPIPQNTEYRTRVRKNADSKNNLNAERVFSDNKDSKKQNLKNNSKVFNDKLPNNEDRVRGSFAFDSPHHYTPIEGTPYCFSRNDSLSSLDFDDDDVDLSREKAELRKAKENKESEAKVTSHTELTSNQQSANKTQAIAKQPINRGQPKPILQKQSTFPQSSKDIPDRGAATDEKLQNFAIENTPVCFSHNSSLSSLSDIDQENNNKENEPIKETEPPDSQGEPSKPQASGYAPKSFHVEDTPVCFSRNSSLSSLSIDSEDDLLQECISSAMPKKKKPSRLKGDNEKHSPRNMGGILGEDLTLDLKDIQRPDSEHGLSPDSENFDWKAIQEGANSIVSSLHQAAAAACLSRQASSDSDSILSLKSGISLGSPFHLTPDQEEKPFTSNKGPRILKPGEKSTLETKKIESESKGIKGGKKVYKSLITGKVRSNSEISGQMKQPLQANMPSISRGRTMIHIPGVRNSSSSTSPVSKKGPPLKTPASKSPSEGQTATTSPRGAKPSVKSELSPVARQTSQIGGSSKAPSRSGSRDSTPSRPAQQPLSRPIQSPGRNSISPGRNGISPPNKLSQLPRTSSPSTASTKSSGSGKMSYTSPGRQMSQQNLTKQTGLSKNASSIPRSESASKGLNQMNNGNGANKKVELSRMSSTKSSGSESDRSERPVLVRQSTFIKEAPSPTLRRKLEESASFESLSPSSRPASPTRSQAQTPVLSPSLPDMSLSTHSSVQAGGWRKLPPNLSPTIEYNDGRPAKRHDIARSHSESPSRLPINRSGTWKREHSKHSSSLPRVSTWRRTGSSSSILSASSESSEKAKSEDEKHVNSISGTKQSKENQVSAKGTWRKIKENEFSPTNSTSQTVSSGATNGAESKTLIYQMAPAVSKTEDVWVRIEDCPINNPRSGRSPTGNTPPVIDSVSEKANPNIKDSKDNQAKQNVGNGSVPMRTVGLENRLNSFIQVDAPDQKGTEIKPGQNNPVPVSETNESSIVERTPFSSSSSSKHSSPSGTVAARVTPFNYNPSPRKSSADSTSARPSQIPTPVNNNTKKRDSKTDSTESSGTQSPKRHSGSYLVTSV
UniProt O15169: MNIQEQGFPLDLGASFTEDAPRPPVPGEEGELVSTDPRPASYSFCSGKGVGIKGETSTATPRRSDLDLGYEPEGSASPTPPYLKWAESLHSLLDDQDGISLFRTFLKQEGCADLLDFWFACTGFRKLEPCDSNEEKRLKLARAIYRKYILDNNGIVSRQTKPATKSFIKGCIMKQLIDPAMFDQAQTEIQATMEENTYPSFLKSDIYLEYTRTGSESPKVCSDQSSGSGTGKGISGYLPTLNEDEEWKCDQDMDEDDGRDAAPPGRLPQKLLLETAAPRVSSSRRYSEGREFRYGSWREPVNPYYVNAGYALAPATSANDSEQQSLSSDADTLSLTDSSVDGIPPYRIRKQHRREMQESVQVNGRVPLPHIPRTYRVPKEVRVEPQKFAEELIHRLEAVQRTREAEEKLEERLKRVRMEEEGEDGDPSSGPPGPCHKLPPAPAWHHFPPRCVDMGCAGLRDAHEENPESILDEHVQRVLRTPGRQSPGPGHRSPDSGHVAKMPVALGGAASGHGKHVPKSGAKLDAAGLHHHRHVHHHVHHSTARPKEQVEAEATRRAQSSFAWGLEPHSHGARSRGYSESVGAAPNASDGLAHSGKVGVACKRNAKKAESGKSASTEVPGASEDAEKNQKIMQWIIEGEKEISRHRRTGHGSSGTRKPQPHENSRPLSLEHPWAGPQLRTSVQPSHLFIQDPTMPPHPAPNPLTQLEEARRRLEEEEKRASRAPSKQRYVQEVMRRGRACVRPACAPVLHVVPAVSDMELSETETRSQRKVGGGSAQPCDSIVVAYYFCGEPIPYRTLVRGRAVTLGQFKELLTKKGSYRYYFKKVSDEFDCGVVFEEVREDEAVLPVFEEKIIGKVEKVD

Key:
Assay in all cases: RNA immunoprecipitation with sequencing
[1] = biological target: 3xFLAG-mScarlet-APC (human (endogenous in HEK293)), P25054; conditions: remark: other sources report otherwise
[2] = biological target: 3xFLAG-eGFP-Axin1 (UniProt O15169)
[3] = biological target: 3xFLAG-mScarlet-APC (human (endogenous in HEK293)) (UniProt P25054)

Binder | binding [1] | binding [2] | binding [3]
AMER1, Q5JTC6 1-1135 (protein) METQKDEAAQAKGAAASGSTREQTAEKGAKNKAAEATEGPTSEPSSSGPGRLKKTAMKLFGGKKGICTLPSFFGGGRSKGSGKGSSKKGLSKSKTHDGLSEAAHGPEDVVSEGTGFSLPLPELPCQFPSSQSAHGALETGSRCKTSVAGATEKAVAEKFPSMPKPKKGLKGFFSSIRRHRKSKVTGAEQSEPGAKGPERVRARPHEHVSSAPQVPCFEETFQAPRKENANPQDAPGPKVSPTPEPSPPATEKMACKDPEKPMEACASAHVQPKPAPEASSLEEPHSPETGEKVVAGEVNPPNGPVGDPLSLLFGDVTSLKSFDSLTGCGDIIAEQDMDSMTDSMASGGQRANRDGTKRSSCLVTYQGGGEEMALPDDDDEEEEEEEEVELEEEEEEVKEEEEDDDLEYLWETAQMYPRPNMNLGYHPTTSPGHHGYMLLDPVRSYPGLAPGELLTPQSDQQESAPNSDEGYYDSTTPGFEDDSGEALGLVRRDCLPRDSYSGDALYEFYEPDDSLENSPPGDDCLYDLHGRSSEMFDPFLNFEPFLSSRPPGAMETEEERLVTIQKQLLYWELRREQLEAQEARAREAHAREAHAREAYTREAYGREAYAREAHTWEAHGREARTREAQAREVRCRETQVRETQARQEKPVLEYQMRPLGPSVMGLAAGVSGTSQISHRGITSAFPTTASSEPDWRDFRPLEKRYEGTCSKKDQSTCLMQLFQSDAMFEPDMQEANFGGSPRRAYPTYSPPEDPEEEEVEKEGNATVSFSQALVEFTSNGNLFSSMSCSSDSDSSFTQNLPELPPMVTFDIADVERDGEGKCEENPEFHNDEDLAASLEAFELGYYHKHAFNNYHSRFYQGLPWGVSSLPRYLGLPGLHPRPPPAAMALNRRSRSLDTAETLEMELSNSHLVQGYLESDELQAQQEDSDEEDEEEEEGEWSRDSPLSLYTEPPGAYDWPAWAPCPLPVGPGPAWISPNQLDRPSSQSPYRQATCCIPPMTMSISLSVPESRAPGESGPQLARPSHLHLPMGPCYNLQPQASQSMRARPRDVLLPVDEPSCSSSSGGFSPSPLPQAKPVGITHGIPQLPRVRPEHPQPQPTHYGPSSLDLSKERAEQGASLATSYSSTAMNGNLAK | binds | – | –
AMER1 (protein, UniProt Q5JTC6 1-1135) METQKDEAAQAKGAAASGSTREQTAEKGAKNKAAEATEGPTSEPSSSGPGRLKKTAMKLFGGKKGICTLPSFFGGGRSKGSGKGSSKKGLSKSKTHDGLSEAAHGPEDVVSEGTGFSLPLPELPCQFPSSQSAHGALETGSRCKTSVAGATEKAVAEKFPSMPKPKKGLKGFFSSIRRHRKSKVTGAEQSEPGAKGPERVRARPHEHVSSAPQVPCFEETFQAPRKENANPQDAPGPKVSPTPEPSPPATEKMACKDPEKPMEACASAHVQPKPAPEASSLEEPHSPETGEKVVAGEVNPPNGPVGDPLSLLFGDVTSLKSFDSLTGCGDIIAEQDMDSMTDSMASGGQRANRDGTKRSSCLVTYQGGGEEMALPDDDDEEEEEEEEVELEEEEEEVKEEEEDDDLEYLWETAQMYPRPNMNLGYHPTTSPGHHGYMLLDPVRSYPGLAPGELLTPQSDQQESAPNSDEGYYDSTTPGFEDDSGEALGLVRRDCLPRDSYSGDALYEFYEPDDSLENSPPGDDCLYDLHGRSSEMFDPFLNFEPFLSSRPPGAMETEEERLVTIQKQLLYWELRREQLEAQEARAREAHAREAHAREAYTREAYGREAYAREAHTWEAHGREARTREAQAREVRCRETQVRETQARQEKPVLEYQMRPLGPSVMGLAAGVSGTSQISHRGITSAFPTTASSEPDWRDFRPLEKRYEGTCSKKDQSTCLMQLFQSDAMFEPDMQEANFGGSPRRAYPTYSPPEDPEEEEVEKEGNATVSFSQALVEFTSNGNLFSSMSCSSDSDSSFTQNLPELPPMVTFDIADVERDGEGKCEENPEFHNDEDLAASLEAFELGYYHKHAFNNYHSRFYQGLPWGVSSLPRYLGLPGLHPRPPPAAMALNRRSRSLDTAETLEMELSNSHLVQGYLESDELQAQQEDSDEEDEEEEEGEWSRDSPLSLYTEPPGAYDWPAWAPCPLPVGPGPAWISPNQLDRPSSQSPYRQATCCIPPMTMSISLSVPESRAPGESGPQLARPSHLHLPMGPCYNLQPQASQSMRARPRDVLLPVDEPSCSSSSGGFSPSPLPQAKPVGITHGIPQLPRVRPEHPQPQPTHYGPSSLDLSKERAEQGASLATSYSSTAMNGNLAK | – | binds | –

The remaining lines, values ahead:

binding [1] | binding [2] | binding [3] | Binder
– | binds | binds | JUP (ψ-catenin) (protein, UniProt P14923 1-745) MEVMNLMEQPIKVTEWQQTYTYDSGIHSGANTCVPSVSSKGIMEEDEACGRQYTLKKTTTYTQGVPPSQGDLEYQMSTTARAKRVREAMCPGVSGEDSSLLLATQVEGQATNLQRLAEPSQLLKSAIVHLINYQDDAELATRALPELTKLLNDEDPVVVTKAAMIVNQLSKKEASRRALMGSPQLVAAVVRTMQNTSDLDTARCTTSILHNLSHHREGLLAIFKSGGIPALVRMLSSPVESVLFYAITTLHNLLLYQEGAKMAVRLADGLQKMVPLLNKNNPKFLAITTDCLQLLAYGNQESKLIILANGGPQALVQIMRNYSYEKLLWTTSRVLKVLSVCPSNKPAIVEAGGMQALGKHLTSNSPRLVQNCLWTLRNLSDVATKQEGLESVLKILVNQLSVDDVNVLTCATGTLSNLTCNNSKNKTLVTQNSGVEALIHAILRAGDKDDITEPAVCALRHLTSRHPEAEMAQNSVRLNYGIPAIVKLLNQPNQWPLVKATIGLIRNLALCPANHAPLQEAAVIPRLVQLLVKAHQDAQRHVAAGTQQPYTDGVRMEEIVEGCTGALHILARDPMNRMEIFRLNTIPLFVQLLYSSVENIQRVAAGVLCELAQDKEAADAIDAEGASAPLMELLHSRNEGTATYAAAVLFRISEDKNPDYRKRVSVELTNSLFKHDPAAWEAAQSMIPINEPYGDDMDATYRPMYSSDVPLDPLEMHMDMDGDYPIDTYSDGLRPPYPTADHMLA
– | – | no binding | PPM1B (protein, UniProt O75688 1-479) MGAFLDKPKTEKHNAHGAGNGLRYGLSSMQGWRVEMEDAHTAVVGIPHGLEDWSFFAVYDGHAGSRVANYCSTHLLEHITTNEDFRAAGKSGSALELSVENVKNGIRTGFLKIDEYMRNFSDLRNGMDRSGSTAVGVMISPKHIYFINCGDSRAVLYRNGQVCFSTQDHKPCNPREKERIQNAGGSVMIQRVNGSLAVSRALGDYDYKCVDGKGPTEQLVSPEPEVYEILRAEEDEFIILACDGIWDVMSNEELCEYVKSRLEVSDDLENVCNWVVDTCLHKGSRDNMSIVLVCFSNAPKVSDEAVKKDSELDKHLESRVEEIMEKSGEEGMPDLAHVMRILSAENIPNLPPGGGLAGKRNVIEAVYSRLNPHRESDGASDEAEESGSQGKLVEALRQMRINHRGNYRQLLEEMLTSYRLAKVEGEESPAEPAATATSSNSDAGNPVTMQESHTESESGLAELDSSNEDAGTKMSGEKI
